Assay results from patent US12239629B2 (priority 2020, dated 2025).
At least one structure is not confirmed: it was looked up by name or label, or the drawing left a doubt.

Test: Dissolution test of Artemether/Lumefantrine-Remdesivir soft gel capsule
Type: physicochemical
Settings: 0.1 N. HCl with 3% Benzalkonium Chloride
From the text: The soft gel capsule of Artemether and Lumefantrine is comprised: Artemether 4 to 5% w/w, Lumefantrine 20-24% w/w, Remdesivir 18-20%, non-aqueous vehicle 15-20% w/w, preservative less than 1% w/w, viscosity imparting agent 15-20% w/w, suspending agent 1 to 5% w/w and emulsifying agent 1 to 3% w/w and a process to manufacture the said preparation comprising of the following steps as given in the above Patent. • (a) Preservatives and Solid Suspending Agents were milled and sifted. • (b) Non-aqueous vehicle, viscosity imparting agent and liquid suspending agents were filtered to remove the foreign particles • (c) Additional steps for mixing preservatives and suspending agents: • (i) Preservatives were dissolved in non-aqueous vehicle; • (ii) Emulsifying agents were warmed and/or melted and added into mixture in (i) above; • (iii) Viscosity imparting agent is added to mixture of (ii) above and the resultant mixture is stirred. • (iv) Suspending agent is added and mixed with the mixture in (iii) above; and • (v) The mixture of (a) above and (c) (iv) above was homogenized. • (d) The mixture in (v) above was the encapsulated in soft gelatin.
Drug dissolution testing is routinely used to provide critical in vitro drug release information for both quality control purposes to predict in vivo drug release profiles.
The media for dissolution test was 0.1 N. HCl with 3% Benzalkonium Chloride.

CCCCN(CCCC)CC(O)c1cc(Cl)cc2c1-c1ccc(Cl)cc1/C2=C/c1ccc(Cl)cc1 (centres unmarked) [Lumefantrine]
% Cumulative Drug Release (60 minute time frame): 90.3%
% of Drug Release in a Dissolution Test (sample time 30 minute): 81.6%
% of Drug Release in a Dissolution Test (sample time 60 minute): 93.7%
% of Drug Release in a Dissolution Test (sample time 90 minute): 100%
% of Drug Release in a Dissolution Test (sample time 120 minute): 100%
